Experimental data from PubChem BioAssay AID588590 (National Center for Advancing Translational Sciences (NCATS), 2011).
Hit rate of the full screen: of about 390,000 compounds, about 4,000 (1%) were called active. The shares of active, inactive and inconclusive entries below differ from those in the screen. Calls follow the shape of the dose curve; as a rule, active = well fitted inhibition curve with a large enough effect; inconclusive = small, poorly fitted or top-dose-only effect, or another doubt; inactive = no such curve, though single readings can be large or run the other way. A potency beside an inconclusive call is a rough fit, not a confirmed value.

Sequences of proteins named here, by UniProt entry; tags and fusion partners are left off. A change or cut given only in a name is not applied to a line headed by its entry.
UniProt Q9UNA4: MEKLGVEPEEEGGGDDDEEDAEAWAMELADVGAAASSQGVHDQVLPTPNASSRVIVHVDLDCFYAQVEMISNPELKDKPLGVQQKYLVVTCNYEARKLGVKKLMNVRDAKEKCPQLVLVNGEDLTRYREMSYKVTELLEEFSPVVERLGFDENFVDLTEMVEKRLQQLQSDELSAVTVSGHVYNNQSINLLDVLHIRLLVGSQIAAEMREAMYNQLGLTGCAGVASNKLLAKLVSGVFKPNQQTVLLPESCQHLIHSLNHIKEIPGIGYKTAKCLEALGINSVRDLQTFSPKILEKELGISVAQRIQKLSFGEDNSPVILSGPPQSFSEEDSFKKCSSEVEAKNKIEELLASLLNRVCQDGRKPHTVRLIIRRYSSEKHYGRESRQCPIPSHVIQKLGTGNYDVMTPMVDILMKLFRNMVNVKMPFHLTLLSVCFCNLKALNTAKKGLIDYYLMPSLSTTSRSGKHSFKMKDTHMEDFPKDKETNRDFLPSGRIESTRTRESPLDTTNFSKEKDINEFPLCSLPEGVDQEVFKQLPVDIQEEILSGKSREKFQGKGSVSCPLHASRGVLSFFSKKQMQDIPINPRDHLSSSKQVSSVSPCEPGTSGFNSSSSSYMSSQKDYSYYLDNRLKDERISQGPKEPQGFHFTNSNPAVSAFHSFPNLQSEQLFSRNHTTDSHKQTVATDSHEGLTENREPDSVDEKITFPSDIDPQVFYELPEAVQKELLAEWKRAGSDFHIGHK

Molecular target: DNA polymerase iota (Homo sapiens) (UniProt Q9UNA4)
Test: qHTS for Inhibitors of Polymerase Iota
Details: Pol iota fluorescent replication assay, 10 min; series mostly up to 115 µM
How it was run: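 Fluorescent replication assay read twice, at 0 min and 10 min after adding 50 nM (final) substrate. Enzyme (10 nM) and compounds were first incubated 15 min at room temperature; enzyme-free buffer wells were negative controls.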
Potency is read from the fitted curve at half-maximal effect.

Potency, inconclusive:
CCCc1nc(SCC(=O)NNC(=O)C2CCCCC2)c2ccccc2n1 89.1 µM [inhibitor, single point]
Oc1ccccc1C1C=C(c2ccc3c(c2)OCO3)NC(c2cccc(Br)c2)N1 (stereo unspecified) 25.1 µM [inhibitor, full curve]
CCN1C=C(Cc2ccc(F)cc2)C2=C(C1)C(c1ccc(F)cc1)C(C#N)=C(N)O2 (stereo unspecified) 31.6 µM [inhibitor, partial curve, poor fit]
Cn1cc(Cl)c(C(=O)N2CCN(c3ncccn3)CC2)n1 35.5 µM [inhibitor, single point]
CCN(CC)CCN=CC1=C(O)CNC1=O 15.8 µM [inhibitor, partial curve, poor fit]
CC1CCN(C(=O)c2ccc(S(=O)(=O)N(C)C)cc2)C(C)C1 (stereo unspecified) 112 µM [inhibitor, single point]
COc1ccc(C)cc1-n1nnnc1SCC(=O)c1cc(C)n(Cc2ccco2)c1C 28.2 µM [inhibitor, single point]
COCCn1c(SCC(=O)NCc2ccco2)nc2cccnc21 11.2 µM [inhibitor, single point]
Cc1ccccc1CN1CCNC(=O)C1CC(=O)O (stereo unspecified) 79.4 µM [inhibitor, single point]
CCc1ccccc1NC(=O)C(C)n1nc(-c2ccc(C)c(C)c2)ccc1=O (stereo unspecified) 79.4 µM [inhibitor, single point]
COCCN(CCOC)Cc1c(O)ccc2c1O/C(=C\c1ccco1)C2=O 14.1 µM [inhibitor, full curve, poor fit]
COc1cccc2sc3cc(C#Cc4ccccn4)ccc3c(=O)c12 28.2 µM [inhibitor, single point]
COC(=O)c1ccc(CSc2nc3ccccc3c(=O)n2-c2cccc(OC)c2)o1 15.8 µM [inhibitor, partial curve, poor fit]
COc1cc2nc(Nc3ccc(F)cc3)nc(N)c2cc1OC 35.5 µM [inhibitor, partial curve, poor fit]
O=C(N/N=C/c1ccco1)c1cccc(N2CCCC2=O)c1 63.1 µM [inhibitor, partial curve, poor fit]
COc1ccc(/C=C2\SC(=S)N(CCCC(=O)N3CCN(C)CC3)C2=O)cc1OC 89.1 µM [inhibitor, partial curve, poor fit]
Cc1sc2ccc3sccc3c2[n+]1C 14.1 µM [inhibitor, partial curve, poor fit]
Cc1cccc(-c2nc3ccccc3c(=O)n2N)c1 2 µM [inhibitor, full curve, poor fit]
C=CCNc1oc(-c2cccc(F)c2)nc1C#N 0.891 µM [inhibitor, partial curve, poor fit]
CCn1c(SCC(=O)Nc2cccc(NC(C)=O)c2)nc2c([nH]c3ccccc32)c1=O 25.1 µM [inhibitor, partial curve, poor fit]
CC(C)(C)c1ccc(-c2nc(S(=O)(=O)c3ccccc3)c(N3CCOCC3)o2)cc1 79.4 µM [inhibitor, single point]
CCc1c(C)nc(N)n2c(SCC(=O)N3CCCc4ccccc43)nnc12 112 µM [inhibitor, single point]
O=C(NCC1CCCO1)c1c[nH]c2ccc(S(=O)(=O)Nc3ccc(F)cc3F)cc2c1=O (stereo unspecified) 89.1 µM [inhibitor, single point]
CC(C)(C)NC(=O)C(c1ccncc1)N(C(=O)CNC(=O)c1ccco1)c1ccc2c(c1)OCO2 (stereo unspecified) 35.5 µM [inhibitor, single point]
O=C(OCC(=O)N1N=C(c2ccc(Cl)cc2)CC1c1ccco1)c1ccccc1O (stereo unspecified) 25.1 µM [inhibitor, partial curve, poor fit]
COc1ccccc1N1CCN(S(=O)(=O)c2ccc3c4c(cccc24)C(=O)N3)CC1 14.1 µM [inhibitor, full curve, poor fit]
COC(=O)C1=C(C(=O)OC)C(c2ccc(OC)c(OC)c2)c2sc(=O)[nH]c2S1 (stereo unspecified) 44.7 µM [inhibitor, partial curve]
O=C(O)CCc1ccc(-c2cccs2)n1Cc1ccco1 44.7 µM [inhibitor, full curve]
Cc1ccc(OCC(O)C(C)NC(C)C)c2c1CCC2 (stereo unspecified) 0.0562 µM [inhibitor, full curve, poor fit]
CC(c1nc2ccccc2c(=O)[nH]1)N1CCCN(S(=O)(=O)c2ccc(F)cc2)CC1 (stereo unspecified) 50.1 µM [inhibitor, partial curve, poor fit]
CCCCCCN(C(=O)CCl)c1ccccc1 10 µM [inhibitor, partial curve, poor fit]
O=C(CSc1nc2ccsc2c(=O)n1CC1CCC(C(=O)O)CC1)NCCc1ccc(Cl)cc1 (stereo unspecified) 70.8 µM [inhibitor, partial curve]
COc1ccc([C@H]2CC(=O)C=C(c3cc4ccccc4c4ccccc34)C2)cc1 79.4 µM [inhibitor, single point]
NC(=O)c1nn(-c2ccccc2)c(=O)cc1O 0.631 µM [inhibitor, full curve, poor fit]
Cn1c(=O)[nH]c(=O)c2c1nc(NCCO)n2CC(O)COc1ccccc1 (stereo unspecified) 100 µM [inhibitor, single point]
O=C(NCc1ccco1)c1ccc(C(=O)NCc2ccco2)cc1 89.1 µM [inhibitor, partial curve, poor fit]
COCOc1cc(O)c(C(=O)/C=C/c2ccccc2)c(OCOC)c1 14.1 µM [inhibitor, partial curve]
COC(=O)c1cc(Cl)c(NC(=O)c2cc(OC)c(OC)c(OC)c2)cc1OC 79.4 µM [inhibitor, partial curve, poor fit]
O=c1cc(-c2ccc(OCc3ccccc3)cc2)oc2cc(OCc3ccccc3)cc(OCc3ccccc3)c12 25.1 µM [inhibitor, partial curve, poor fit]
CC(C(O)c1ccc(O)cc1)N1CCC(Cc2ccccc2)CC1 (stereo unspecified) 50.1 µM [inhibitor, partial curve, poor fit]
CCCCNc1c(-c2ccc(SC(C)CC)cc2)nc2cnccn12 (stereo unspecified) 2 µM [inhibitor, full curve, poor fit]
COC(=O)c1cc2c([nH]c1=O)CCCC2=O 28.2 µM [inhibitor, partial curve, poor fit]
N/C(=N\NS(=O)(=O)c1ccccc1Cl)c1ccccn1 3.16 µM [inhibitor, full curve, poor fit]
O=C1NN(c2cccc(Br)c2)C(=O)/C1=C\c1ccccc1 22.4 µM [inhibitor, partial curve, poor fit]
O=C1CCC(C(=O)N2CCN(c3ccccc3Cl)CC2)CN1CC1CCCCC1 (stereo unspecified) 39.8 µM [inhibitor, single point]
O=C(O)/C=C/C(=O)Nc1nc(-c2ccc3ccccc3c2)cs1 22.4 µM [inhibitor, full curve]
CCn1c2ccccc2c2cc(/C=N/NC(=O)c3ccc(O)cc3)ccc21 2.82 µM [inhibitor, full curve]
Fc1ccc(N2CCN(C(c3cccs3)c3nnnn3CCc3ccccc3)CC2)cc1 (stereo unspecified) 3.16 µM [inhibitor, single point]

Molecules shown so far with a cyano group:
Potency, inconclusive:
CCN1C=C(Cc2ccc(F)cc2)C2=C(C1)C(c1ccc(F)cc1)C(C#N)=C(N)O2 (stereo unspecified) 31.6 µM [inhibitor, partial curve, poor fit]
C=CCNc1oc(-c2cccc(F)c2)nc1C#N 0.891 µM [inhibitor, partial curve, poor fit]

Ordered by length of the SMILES (largest number first): some entries from above.
Potency, inconclusive:
O=c1cc(-c2ccc(OCc3ccccc3)cc2)oc2cc(OCc3ccccc3)cc(OCc3ccccc3)c12 25.1 µM [inhibitor, partial curve, poor fit]
COc1ccc(C)cc1-n1nnnc1SCC(=O)c1cc(C)n(Cc2ccco2)c1C 28.2 µM [inhibitor, single point]
Cc1cccc(-c2nc3ccccc3c(=O)n2N)c1 2 µM [inhibitor, full curve, poor fit]

Following part.

Potency, active:
O/C=c1\ccc2cccc3nc(C(F)(F)F)nc1c23 0.891 µM

Potency, inactive:
CCN(CC(=O)Nc1c(F)cccc1F)C(=O)c1ccc(NC(=O)CC2SC(N3CCCC3)=NC2=O)cc1 (stereo unspecified)
COc1ccc(Cn2ccc3nc(C)c(C(=O)NCc4ccc(OC)cc4OC)cc3c2=O)cc1
C/C(=N\NC(=S)Nc1ccccc1C)c1cc2ccccc2o1
Cn1c(N)c(S(=O)(=O)NCc2ccc(F)cc2)c(=O)n(C)c1=O
CCN(C(=O)c1nn(-c2ccc(C)cc2)c(=O)c2c1c1ccccc1n2C)c1ccc(F)cc1
COc1ccc(NS(=O)(=O)c2cc([N+](=O)[O-])ccc2N/N=C/c2c(C)[nH]c3ccccc23)cc1
CCN(C(=O)C1CCCN(c2ncnc3onc(-c4ccc(F)cc4)c23)C1)c1ccccc1 (stereo unspecified)
c1ccc2c(N3CCOCC3)c3c(nc2c1)CCC3
O=C(Cc1cccs1)Nc1nnc(-c2ccc(F)cc2)s1
O=[N+]([O-])c1ccc(S(=O)(=O)NN=CCCc2ccccc2)cc1
Nc1nc(N)c2snnc2n1
O=[N+]([O-])c1ccc2nc(NN=Cc3ccc(O)cc3)sc2c1
Cc1ccc(CSC2=Nc3ccccc3C3=NC(CC(=O)NCc4cccs4)C(=O)N23)cc1 (stereo unspecified)
COc1ccccc1-c1cc2nc(C)cc(C)n2n1
CC1CC(=O)N(CC(=O)Nc2ccc(F)cc2F)c2ccccc2S1 (stereo unspecified)
Nc1cccn2c(-c3ccc(Cl)cc3)cnc12
Cc1cn(S(=O)(=O)c2ccc(F)c(Cl)c2)cn1
